PubChem BioAssay AID1259254 | NCATS, 2017
Aim: 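Genome-wide screen for genes that prevent DNA re-replication in cancer cells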 (primary screen). System: human HCT116 colorectal cancer cells. Reagents: single siRNA against human genes. Timing: 3 days. Read-out: 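Imaged Hoechst DNA stain sorts each cell into a cycle phase by DNA amount; per plate, G2 fraction set to 0% for non-targeting and 100% for GMNN siRNA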. Direction: G2 robust z-score and G2 cells, % of GMNN control: higher = more G2 cells, more excess DNA replication. Active means: 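Active siRNAs have a G2 robust z of 5 or more median absolute deviations over the median, which in these data means about 38% or higher of GMNN control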.
Shown is an unselected part of about 59,000 reagents tested. Over the whole deposit, about 1,550 (2.6%) were called active. 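G2 share is only a proxy for re-replication; each gene was hit by three separate siRNAs, and active genes were retested.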 Unmarked entries are inactive. The numbers tell different reagents against one gene apart. Not all columns of the deposit are shown. Not given: the amount of reagent.

For GSPT1 #1, what does the deposit list?
G2 robust z-score: 0.149; G2 cells, % of GMNN control: 4.02

How did the screen score GSPT1 #2?
G2 robust z-score: 1.8; G2 cells, % of GMNN control: 15.6

With GSPT1 #3, how do the results read?
G2 robust z-score: 6.81 (active); G2 cells, % of GMNN control: 50.9

For GCH1 #1, what was measured?
G2 robust z-score: -1.37; G2 cells, % of GMNN control: -6.7

What did the screen give for GCH1 #2?
G2 robust z-score: -0.674; G2 cells, % of GMNN control: -1.77

For GCH1 #3, how do the results read?
G2 robust z-score: 0.299; G2 cells, % of GMNN control: 5.07

With IHO1 #1, what was measured?
G2 robust z-score: -0.36; G2 cells, % of GMNN control: 0.438

For IHO1 #2, what does the deposit list?
G2 robust z-score: 2.43; G2 cells, % of GMNN control: 20.1

With IHO1 #3, what does the deposit list?
G2 robust z-score: 0.855; G2 cells, % of GMNN control: 8.99

What did the screen give for MAP2K2 #1?
G2 robust z-score: -0.686; G2 cells, % of GMNN control: -1.86

For MAP2K2 #2, what does the deposit list?
G2 robust z-score: -1.76; G2 cells, % of GMNN control: -9.41

For MAP2K2 #3, what does the deposit list?
G2 robust z-score: -0.182; G2 cells, % of GMNN control: 1.69

Entries listed so far whose target name starts with I or i:
IHO1 #1: G2 robust z-score = -0.36; G2 cells, % of GMNN control = 0.438
IHO1 #2: G2 robust z-score = 2.43; G2 cells, % of GMNN control = 20.1
IHO1 #3: G2 robust z-score = 0.855; G2 cells, % of GMNN control = 8.99

Additional results follow.
How did the screen score HOMER2 #1?
G2 robust z-score: -0.757; G2 cells, % of GMNN control: -2.36

Which result is listed for HOMER2 #2?
G2 robust z-score: -1.08; G2 cells, % of GMNN control: -4.61

How did the screen score HOMER2 #3?
G2 robust z-score: 0.387; G2 cells, % of GMNN control: 5.69

Which result is listed for CXCL11 #1?
G2 robust z-score: 0.795; G2 cells, % of GMNN control: 8.56

For CXCL11 #2, what does the deposit list?
G2 robust z-score: -0.483; G2 cells, % of GMNN control: -0.428

Which result is listed for CXCL11 #3?
G2 robust z-score: 0.519; G2 cells, % of GMNN control: 6.62

What did the screen give for DBN1 #1?
G2 robust z-score: -0.602; G2 cells, % of GMNN control: -1.27

Which result is listed for DBN1 #2?
G2 robust z-score: -0.937; G2 cells, % of GMNN control: -3.63

How did the screen score DBN1 #3?
G2 robust z-score: 0.444; G2 cells, % of GMNN control: 6.09

With ADAMTS10 #1, what does the deposit list?
G2 robust z-score: 3.25; G2 cells, % of GMNN control: 25.8

For ADAMTS10 #2, how do the results read?
G2 robust z-score: 4.34; G2 cells, % of GMNN control: 33.5

What did the screen give for ADAMTS10 #3?
G2 robust z-score: 0.394; G2 cells, % of GMNN control: 5.74

With SLC17A1 #1, how do the results read?
G2 robust z-score: 2.9; G2 cells, % of GMNN control: 23.4

For SLC17A1 #2, what does the deposit list?
G2 robust z-score: -0.0113; G2 cells, % of GMNN control: 2.89

How did the screen score SLC17A1 #3?
G2 robust z-score: -1.26; G2 cells, % of GMNN control: -5.89

For ACTA2 #1, how do the results read?
G2 robust z-score: 6.72 (active); G2 cells, % of GMNN control: 50.2

For ACTA2 #2, what does the deposit list?
G2 robust z-score: -0.579; G2 cells, % of GMNN control: -1.11

What did the screen give for ACTA2 #3?
G2 robust z-score: 0.905; G2 cells, % of GMNN control: 9.33
